Test results published in patent publication US20110200525A1 (published 2011).
Where a chain is given by its changes, count along the chain named. No constants are given. Whether binding was seen depends on the method and setting. For part of these data: Binding seen in cells or lysates may run through a third protein. Some binding calls cover weakened binding; strength is not graded here.

B1: VHH110 (VHH, not shown: small tags and cut ends)
VHH: EVKLQESGGGLVQSGGSLRLSCIASGSTVSDNTMGWYRQAPGKQRELVAVISSVGVTNVAQSVKGRFTISRDNAKNTVTVYLQMSSLKPEDTAVYYCNALGTGRGNWGQGTQVTVSS
B2: VHH139 (VHH, not shown: small tags and cut ends)
VHH: EVKLQQSGGGLVQPGKSLRLSCEASARAAGVGWFRQAPGLEREYVGSFLWNTGRTHYPESLKDRFTISKDNAKNTVYLQINSLKPEDTAIYYCAAVQLPIRTSLTEPATYTFWGQGTQVTVAS
B3: VHH101 (VHH, not shown: small tags and cut ends)
VHH: B2 VHH with Q6E
B4: VHH102 (VHH, not shown: small tags and cut ends)
VHH: EVKLQESGGGLVQSGGSLRLSCIASGSTVSGNTMGWYRQAPGKQRELVAVISSVGVSNVAQSVKGRFAISRDNAKNTVYLQMSSLKPEDTAVYYCNALGTGRANWGQGTQVTVSS
B5: VHH104 (VHH, not shown: small tags and cut ends)
VHH: B1 VHH with K3Q, E6Q
B6: VHH122 (VHH)
VHH: EVQLQESGGGLVQAGDSLRLSCLVSGRSFNSYTMGWFRQAPGKEREFVAAILWSGPTTYYADSVKGRFTISRDNAKNTVYLQMNSLKPEDTAVYYCAAALGVLVLAPGNVYSYWGQGTQVTVSS
notes: polyhistidine and myc tagged; also called VH122; not shown: C-terminal 6-His and myc tags from pHEN1-H6

Key:
[1] = molecular target: T1, human EGFR wild type (human, UniProt P00533 25-1210); assay: plate pulldown from NR6W lysate with VHH on nickel-chelate plate, anti-EGFR (H11) Western blot
T1 construct: whole, on cells; also called EGFR on NR6W cells; EGFR in NR6W lysate

[2] = molecular target: T1, human EGFR wild type; assay: pull-down from NR6W lysate by His-tagged VHH on a nickel-chelate plate, Western blot with anti-EGFR mAb H11
[3] = molecular target: EGFR ECD (wild type) (UniProt P00533); assay: SPR on immobilized EGFR ECD
[4] = molecular target: EGFR ECD (wild type) (UniProt P00533); assay: ELISA on immobilized EGFR ECD

| binding [1] | binding [2] | binding [3] | binding [4] | Binder |
| --- | --- | --- | --- | --- |
| binds | binds |  |  | B1 |
| binds | binds |  |  | B2 |
| binds | binds |  |  | B3 |
| binds | binds |  |  | B4 |
| binds | binds |  |  | B5 |
|  |  | binds | binds | B6 |
